Measured values reported in article doi:10.1101/2022.11.03.515106 (bioRxiv, 2022).
No constants are given. Whether binding was seen depends on the method and setting. Binding seen in cells or lysates may run through a third protein. Some results given as binding are weak or reduced against the parent protein; the word gives no strength. For part of these data: Sequences can lack the tags named with a protein.

Legend:
Assay in all cases: co-IP
[1] = target: T1, Flag-TTDN1 lacking 60 N-terminal amino acids (human) (UniProt Q8TAP9)
T1 sequence: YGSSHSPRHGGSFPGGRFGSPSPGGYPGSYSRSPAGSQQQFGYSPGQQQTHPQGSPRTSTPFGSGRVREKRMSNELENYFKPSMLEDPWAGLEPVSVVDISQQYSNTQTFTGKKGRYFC

[2] = target: T2, Flag-TTDN1 lacking the first N-terminal 20 amino acids (human) (UniProt Q8TAP9)
T2 sequence: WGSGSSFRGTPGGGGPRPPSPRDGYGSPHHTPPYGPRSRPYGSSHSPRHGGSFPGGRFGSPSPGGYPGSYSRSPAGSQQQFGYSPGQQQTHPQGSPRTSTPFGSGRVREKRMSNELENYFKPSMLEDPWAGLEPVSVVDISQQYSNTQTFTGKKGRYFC

HA-TTDN1 (human) = target: T3, HA-TTDN1 (human) (UniProt Q8TAP9)
T3 sequence: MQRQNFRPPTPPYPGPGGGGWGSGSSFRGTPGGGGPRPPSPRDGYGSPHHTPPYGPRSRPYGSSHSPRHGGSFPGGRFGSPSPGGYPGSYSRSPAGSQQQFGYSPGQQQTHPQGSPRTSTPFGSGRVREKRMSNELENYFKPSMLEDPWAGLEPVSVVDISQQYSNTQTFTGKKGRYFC

Flag-TTDN1 M144V (human) = target: T4, Flag-TTDN1 M144V (human) (UniProt Q8TAP9)
T4 sequence: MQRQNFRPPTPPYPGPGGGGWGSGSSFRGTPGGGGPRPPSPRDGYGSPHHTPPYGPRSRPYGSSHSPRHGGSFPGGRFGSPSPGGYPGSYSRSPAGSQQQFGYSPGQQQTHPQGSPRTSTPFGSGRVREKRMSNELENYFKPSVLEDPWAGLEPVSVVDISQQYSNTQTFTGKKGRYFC

Flag-TTDN1 (human) = target: T5, Flag-TTDN1 (human) (UniProt Q8TAP9)
T5 sequence: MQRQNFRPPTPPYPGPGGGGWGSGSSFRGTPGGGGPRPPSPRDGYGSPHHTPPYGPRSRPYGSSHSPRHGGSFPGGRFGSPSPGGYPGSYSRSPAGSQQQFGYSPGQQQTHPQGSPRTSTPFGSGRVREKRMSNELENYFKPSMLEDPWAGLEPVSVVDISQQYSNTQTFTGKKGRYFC

[3] = target: T6, endogenous DBR1 (human (endogenous in 293T and HeLa-S)) (UniProt Q9UK59)
T6 sequence: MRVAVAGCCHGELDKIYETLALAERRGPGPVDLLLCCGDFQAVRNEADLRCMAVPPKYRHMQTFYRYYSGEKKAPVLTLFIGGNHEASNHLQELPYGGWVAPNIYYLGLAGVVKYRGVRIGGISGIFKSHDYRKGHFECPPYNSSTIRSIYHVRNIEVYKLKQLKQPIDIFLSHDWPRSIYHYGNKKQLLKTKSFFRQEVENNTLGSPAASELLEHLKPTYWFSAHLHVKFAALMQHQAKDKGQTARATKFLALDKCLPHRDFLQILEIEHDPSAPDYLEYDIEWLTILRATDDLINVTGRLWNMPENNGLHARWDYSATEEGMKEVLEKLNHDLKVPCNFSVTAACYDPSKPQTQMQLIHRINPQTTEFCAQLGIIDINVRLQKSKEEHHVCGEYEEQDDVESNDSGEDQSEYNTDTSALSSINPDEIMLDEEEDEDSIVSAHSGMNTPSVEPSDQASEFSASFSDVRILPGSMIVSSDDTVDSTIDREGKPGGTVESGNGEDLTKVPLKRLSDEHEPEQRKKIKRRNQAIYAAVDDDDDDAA

B1: XAB2 (protein, UniProt Q9HCS7 1-855)
chain: MVVMARLSRPERPDLVFEEEDLPYEEEIMRNQFSVKCWLRYIEFKQGAPKPRLNQLYERALKLLPCSYKLWYRYLKARRAQVKHRCVTDPAYEDVNNCHERAFVFMHKMPRLWLDYCQFLMDQGRVTHTRRTFDRALRALPITQHSRIWPLYLRFLRSHPLPETAVRGYRRFLKLSPESAEEYIEYLKSSDRLDEAAQRLATVVNDERFVSKAGKSNYQLWHELCDLISQNPDKVQSLNVDAIIRGGLTRFTDQLGKLWCSLADYYIRSGHFEKARDVYEEAIRTVMTVRDFTQVFDSYAQFEESMIAAKMETASELGREEEDDVDLELRLARFEQLISRRPLLLNSVLLRQNPHHVHEWHKRVALHQGRPREIINTYTEAVQTVDPFKATGKPHTLWVAFAKFYEDNGQLDDARVILEKATKVNFKQVDDLASVWCQCGELELRHENYDEALRLLRKATALPARRAEYFDGSEPVQNRVYKSLKVWSMLADLEESLGTFQSTKAVYDRILDLRIATPQIVINYAMFLEEHKYFEESFKAYERGISLFKWPNVSDIWSTYLTKFIARYGGRKLERARDLFEQALDGCPPKYAKTLYLLYAQLEEEWGLARHAMAVYERATRAVEPAQQYDMFNIYIKRAAEIYGVTHTRGIYQKAIEVLSDEHAREMCLRFADMECKLGEIDRARAIYSFCSQICDPRTTGAFWQTWKDFEVRHGNEDTIKEMLRIRRSVQATYNTQVNFMASQMLKVSGSATGTVSDLAPGQSGMDDMKLLEQRAEQLAAEAERDQPLRAQSKILFVRSDASREELAELAQQVNPEEIQLGEDEDEDEMDLEPNEVRLEQQSVPAAVFGSLKED
binding [1]: no binding
binding [2]: binds

B2: endogenous DBR1 (enzyme, UniProt Q9UK59 1-544)
chain: MRVAVAGCCHGELDKIYETLALAERRGPGPVDLLLCCGDFQAVRNEADLRCMAVPPKYRHMQTFYRYYSGEKKAPVLTLFIGGNHEASNHLQELPYGGWVAPNIYYLGLAGVVKYRGVRIGGISGIFKSHDYRKGHFECPPYNSSTIRSIYHVRNIEVYKLKQLKQPIDIFLSHDWPRSIYHYGNKKQLLKTKSFFRQEVENNTLGSPAASELLEHLKPTYWFSAHLHVKFAALMQHQAKDKGQTARATKFLALDKCLPHRDFLQILEIEHDPSAPDYLEYDIEWLTILRATDDLINVTGRLWNMPENNGLHARWDYSATEEGMKEVLEKLNHDLKVPCNFSVTAACYDPSKPQTQMQLIHRINPQTTEFCAQLGIIDINVRLQKSKEEHHVCGEYEEQDDVESNDSGEDQSEYNTDTSALSSINPDEIMLDEEEDEDSIVSAHSGMNTPSVEPSDQASEFSASFSDVRILPGSMIVSSDDTVDSTIDREGKPGGTVESGNGEDLTKVPLKRLSDEHEPEQRKKIKRRNQAIYAAVDDDDDDAA
binding (HA-TTDN1 (human)): binds
binding [1]: binds
binding (Flag-TTDN1 M144V (human)): binds
binding (Flag-TTDN1 (human)): binds

B3: Aquarius (AQR) (protein, UniProt O60306 1-1485)
chain: MAAPAQPKKIVAPTVSQINAEFVTQLACKYWAPHIKKKSPFDIKVIEDIYEKEIVKSRFAIRKIMLLEFSQYLENYLWMNYSPEVSSKAYLMSICCMVNEKFRENVPAWEIFKKKPDHFPFFFKHILKAALAETDGEFSLHEQTVLLLFLDHCFNSLEVDLIRSQVQQLISLPMWMGLQLARLELELKKTPKLRKFWNLIKKNDEKMDPEAREQAYQERRFLSQLIQKFISVLKSVPLSEPVTMDKVHYCERFIELMIDLEALLPTRRWFNTILDDSHLLVHCYLSNLVRREEDGHLFSQLLDMLKFYTGFEINDQTGNALTENEMTTIHYDRITSLQRAAFAHFPELYDFALSNVAEVDTRESLVKFFGPLSSNTLHQVASYLCLLPTLPKNEDTTFDKEFLLELLVSRHERRISQIQQLNQMPLYPTEKIIWDENIVPTEYYSGEGCLALPKLNLQFLTLHDYLLRNFNLFRLESTYEIRQDIEDSVSRMKPWQSEYGGVVFGGWARMAQPIVAFTVVEVAKPNIGENWPTRVRADVTINLNVRDHIKDEWEGLRKHDVCFLITVRPTKPYGTKFDRRRPFIEQVGLVYVRGCEIQGMLDDKGRVIEDGPEPRPNLRGESRTFRVFLDPNQYQQDMTNTIQNGAEDVYETFNIIMRRKPKENNFKAVLETIRNLMNTDCVVPDWLHDIILGYGDPSSAHYSKMPNQIATLDFNDTFLSIEHLKASFPGHNVKVTVEDPALQIPPFRITFPVRSGKGKKRKDADVEDEDTEEAKTLIVEPHVIPNRGPYPYNQPKRNTIQFTHTQIEAIRAGMQPGLTMVVGPPGTGKTDVAVQIISNIYHNFPEQRTLIVTHSNQALNQLFEKIMALDIDERHLLRLGHGEEELETEKDFSRYGRVNYVLARRIELLEEVKRLQKSLGVPGDASYTCETAGYFFLYQVMSRWEEYISKVKNKGSTLPDVTEVSTFFPFHEYFANAPQPIFKGRSYEEDMEIAEGCFRHIKKIFTQLEEFRASELLRSGLDRSKYLLVKEAKIIAMTCTHAALKRHDLVKLGFKYDNILMEEAAQILEIETFIPLLLQNPQDGFSRLKRWIMIGDHHQLPPVIKNMAFQKYSNMEQSLFTRFVRVGVPTVDLDAQGRARASLCNLYNWRYKNLGNLPHVQLLPEFSTANAGLLYDFQLINVEDFQGVGESEPNPYFYQNLGEAEYVVALFMYMCLLGYPADKISILTTYNGQKHLIRDIINRRCGNNPLIGRPNKVTTVDRFQGQQNDYILLSLVRTRAVGHLRDVRRLVVAMSRARLGLYIFARVSLFQNCFELTPAFSQLTARPLHLHIIPTEPFPTTRKNGERPSHEVQIIKNMPQMANFVYNMYMHLIQTTHHYHQTLLQLPPAMVEEGEEVQNQETELETEEEAMTVQADIIPSPTDTSCRQETPAFQTDTTPSETGATSTPEAIPALSETTPTVVGAVSAPAEANTPQDATSAPEETK
binding [1]: no binding
binding [2]: binds

B4: endogenous TTDN1 (protein, UniProt Q8TAP9 1-179)
chain: MQRQNFRPPTPPYPGPGGGGWGSGSSFRGTPGGGGPRPPSPRDGYGSPHHTPPYGPRSRPYGSSHSPRHGGSFPGGRFGSPSPGGYPGSYSRSPAGSQQQFGYSPGQQQTHPQGSPRTSTPFGSGRVREKRMSNELENYFKPSMLEDPWAGLEPVSVVDISQQYSNTQTFTGKKGRYFC
binding [3]: binds
